The record followed here is PMC7717530.

Sequences of proteins named here, by UniProt entry; tags and fusion partners are left off. A change or cut given only in a name is not applied to a line headed by its entry. A line that says so, or that is headed by a name, gives the form on record, which may keep a tag or linker. Residues count along the entry.
EphA7 full-length isoform with hemagglutinin tag (EphA7-FL-HA) (Q61772, residues 28-998): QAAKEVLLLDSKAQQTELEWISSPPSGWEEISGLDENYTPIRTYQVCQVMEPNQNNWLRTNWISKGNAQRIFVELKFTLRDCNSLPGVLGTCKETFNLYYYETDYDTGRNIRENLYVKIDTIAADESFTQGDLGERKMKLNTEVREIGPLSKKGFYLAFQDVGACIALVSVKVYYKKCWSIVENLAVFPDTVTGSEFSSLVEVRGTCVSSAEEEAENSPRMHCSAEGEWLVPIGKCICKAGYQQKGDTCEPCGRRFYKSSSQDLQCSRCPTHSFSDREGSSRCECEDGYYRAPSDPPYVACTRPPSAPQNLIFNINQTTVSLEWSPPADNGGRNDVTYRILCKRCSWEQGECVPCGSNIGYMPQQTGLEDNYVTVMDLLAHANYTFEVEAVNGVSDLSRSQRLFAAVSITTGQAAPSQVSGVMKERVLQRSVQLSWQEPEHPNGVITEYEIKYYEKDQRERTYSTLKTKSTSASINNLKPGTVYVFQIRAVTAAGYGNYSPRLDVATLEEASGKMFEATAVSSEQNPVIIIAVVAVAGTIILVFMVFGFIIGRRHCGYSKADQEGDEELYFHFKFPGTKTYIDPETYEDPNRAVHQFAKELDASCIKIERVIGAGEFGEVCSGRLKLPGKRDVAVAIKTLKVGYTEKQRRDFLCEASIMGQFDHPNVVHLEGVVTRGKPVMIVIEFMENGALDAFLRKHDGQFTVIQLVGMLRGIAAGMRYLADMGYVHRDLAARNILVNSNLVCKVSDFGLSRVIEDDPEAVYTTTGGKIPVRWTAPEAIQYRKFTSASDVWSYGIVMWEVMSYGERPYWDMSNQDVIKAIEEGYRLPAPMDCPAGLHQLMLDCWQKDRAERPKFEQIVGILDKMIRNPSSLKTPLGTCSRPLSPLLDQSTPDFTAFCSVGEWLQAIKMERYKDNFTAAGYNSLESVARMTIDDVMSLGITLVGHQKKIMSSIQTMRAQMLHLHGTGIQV
EphA7 truncated isoform with myc tag (EphA7-T1-myc) (Q61772-4, form named): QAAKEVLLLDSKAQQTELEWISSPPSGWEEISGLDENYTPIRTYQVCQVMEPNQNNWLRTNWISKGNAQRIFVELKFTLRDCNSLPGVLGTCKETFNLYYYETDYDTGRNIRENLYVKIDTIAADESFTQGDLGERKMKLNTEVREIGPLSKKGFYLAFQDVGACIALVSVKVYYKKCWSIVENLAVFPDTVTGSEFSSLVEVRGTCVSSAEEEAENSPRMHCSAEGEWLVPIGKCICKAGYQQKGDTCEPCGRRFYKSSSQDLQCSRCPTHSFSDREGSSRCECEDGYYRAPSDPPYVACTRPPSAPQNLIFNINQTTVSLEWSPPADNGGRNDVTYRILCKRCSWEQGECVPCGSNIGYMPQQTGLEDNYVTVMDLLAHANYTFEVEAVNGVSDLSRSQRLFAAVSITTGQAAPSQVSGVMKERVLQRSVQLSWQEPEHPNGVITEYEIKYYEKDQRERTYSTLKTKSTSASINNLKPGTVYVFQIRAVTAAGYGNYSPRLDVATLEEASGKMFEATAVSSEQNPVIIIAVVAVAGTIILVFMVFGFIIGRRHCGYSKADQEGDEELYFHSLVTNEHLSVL

These are yes or no findings as the source states them, for the method shown. Binding seen in cells or lysates may run through a third protein. Some results given as binding are weak or reduced against the parent protein; the word gives no strength.

This assay has as its target EphA7 full-length isoform with hemagglutinin tag (EphA7-FL-HA) (UniProt Q61772). Put plainly: co-IP; HEK cells co-transfected with EphA7-FL-HA and EphA7-T1-myc (1:1, or T1:FL 0.2:1, 1:1, 5:1 with 15 min clustered ephrin-A5-hFC or hFC); lysed in 1% NP-40, 50 mM Tris-HCl pH 8.0, 150 mM NaCl; anti-HA or anti-myc on protein A/G agarose, overnight 4°C; blots for EphA7, HA, myc.

Take “EphA7 truncated isoform with myc tag (EphA7-T1-myc) (from UniProt Q61772-4 28-610) (receptor)”: the binding entry is “binds”.
